A short description of this data set: general procedure: Fmoc solid-phase peptide synthesis; TGR RAM resin; DIC/HOBt. Conditions: whole synthesis, analytical reversed-phase HPLC on at least two columns (Jupiter Proteo, Kinetex Biphenyl, Aeris Peptide).

One purity is given for all peptides; the source may state it once. Where only a bound is given, the exact number is not on record here.

In the case of K-Wsf-FwLL-NH2, the “final HPLC purity” value is on record as over 95%.

Consider K-Wrf-FwLL-NH2, for which the “final HPLC purity” value is on record as over 95%.

These data come from PMC7891422 (Chembiochem, 2020).
